Measurements reported in the supplement of paper PMC4604168 (melanoma cell lines).
Some of the results follow. Many values rest on one well or one pass, so single values are uncertain.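 The apoptosis fraction was the count of cleaved-PARP antibody-stained nuclei relative to all DNA-stained nuclei, imaged in 1,536-well plates. Screening doses were set so most cells survived, and baseline and induced cleaved-PARP levels vary greatly across cell lines.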

System: MZ2-MEL
Experiment: cleaved PARP positive nuclei fraction relative to DMSO control; melanoma cells; higher = more apoptosis
Conditions: library dose: low library concentration; 72 h

SMILES | cleaved PARP positive nuclei fraction
Cc1cn(-c2cc(NC(=O)c3ccc(C)c(Nc4nccc(-c5cccnc5)n4)c3)cc(C(F)(F)F)c2)cn1 [nilotinib] + Nc1nc(F)nc2c1ncn2[C@@H]1O[C@H](CO)[C@@H](O)[C@@H]1O [fludarabine] (first compound 0.2 µM, partner dose 0.2 µM) | 104%
O=c1[nH]nc(Sc2ncc([N+](=O)[O-])s2)n1-c1ccc2c(c1)OCCO2 + CO[C@H]1C[C@@H]2CC[C@@H](C)[C@@](O)(O2)C(=O)C(=O)N2CCCC[C@H]2C(=O)O[C@H]([C@H](C)C[C@@H]2CC[C@@H](OCCO)[C@H](OC)C2)CC(=O)[C@H](C)/C=C(\C)[C@@H](O)[C@@H](OC)C(=O)[C@H](C)C[C@H](C)/C=C/C=C/C=C/1C [everolimus] (first compound 0.2 µM, partner dose 0.02 µM) | 160%
O=c1[nH]nc(Sc2ncc([N+](=O)[O-])s2)n1-c1ccc2c(c1)OCCO2 + Cn1nnc2c(C(N)=O)ncn2c1=O [temozolomide] (first compound 0.2 µM, partner dose 2 µM) | 92.5%
Cc1cc(Nc2cc(N3CCN(C)CC3)nc(Sc3ccc(NC(=O)C4CC4)cc3)n2)n[nH]1 [Tozasertib] + C[C@@H](Oc1cc(-c2cnn(C3CCNCC3)c2)cnc1N)c1c(Cl)ccc(F)c1Cl [Crizotinib] (first compound 0.006 µM, partner dose 0.2 µM) | 81.2%
O=c1[nH]nc(Sc2ncc([N+](=O)[O-])s2)n1-c1ccc2c(c1)OCCO2 + NC(=O)c1ccc(N(C(N)=O)c2c(F)cccc2F)nc1-c1ccc(F)cc1F [VX702] (first compound 0.2 µM, partner dose 0.4 µM) | 93.6%
Cc1ccc(Nc2nccc(N(C)c3ccc4c(C)n(C)nc4c3)n2)cc1S(N)(=O)=O [Pazopanib] + CO[C@H]1C[C@@H]2CC[C@@H](C)[C@@](O)(O2)C(=O)C(=O)N2CCCC[C@H]2C(=O)O[C@H]([C@H](C)C[C@@H]2CC[C@@H](OCCO)[C@H](OC)C2)CC(=O)[C@H](C)/C=C(\C)[C@@H](O)[C@@H](OC)C(=O)[C@H](C)C[C@H](C)/C=C/C=C/C=C/1C [everolimus] (first compound 0.4 µM, partner dose 0.02 µM) | 152%
Cc1ccc(Nc2nccc(N(C)c3ccc4c(C)n(C)nc4c3)n2)cc1S(N)(=O)=O [Pazopanib] + CCCS(=O)(=O)Nc1ccc(F)c(C(=O)c2c[nH]c3ncc(Cl)cc23)c1F [PLX4720] (first compound 0.4 µM, partner dose 0.08 µM) | 102%
N#CC[C@H](C1CCCC1)n1cc(-c2ncnc3[nH]ccc23)cn1 [ruxolitinib] + OCc1c[nH]c2ccccc12 [Indole-3-carbinol] (first compound 1 µM, partner dose 0.8 µM) | 128%
Cc1ccc(Nc2nccc(N(C)c3ccc4c(C)n(C)nc4c3)n2)cc1S(N)(=O)=O [Pazopanib] + OCc1c[nH]c2ccccc12 [Indole-3-carbinol] (first compound 0.4 µM, partner dose 0.8 µM) | 99.6%
COc1cc([C@@H]2c3cc4c(cc3[C@@H](O[C@@H]3O[C@@H]5CO[C@@H](C)O[C@H]5[C@H](O)[C@H]3O)[C@H]3COC(=O)[C@H]23)OCO4)cc(OC)c1O [etoposide] + C[C@]1(O)C[C@@H](c2nc(-c3ccc4ccc(-c5ccccc5)nc4c3)c3c(N)nccn32)C1 [OSI906] (first compound 0.02 µM, partner dose 0.4 µM) | 83.1%
N#CC[C@H](C1CCCC1)n1cc(-c2ncnc3[nH]ccc23)cn1 [ruxolitinib] + CO[C@H]1C[C@@H]2CC[C@@H](C)[C@@](O)(O2)C(=O)C(=O)N2CCCC[C@H]2C(=O)O[C@H]([C@H](C)C[C@@H]2CC[C@@H](OCCO)[C@H](OC)C2)CC(=O)[C@H](C)/C=C(\C)[C@@H](O)[C@@H](OC)C(=O)[C@H](C)C[C@H](C)/C=C/C=C/C=C/1C [everolimus] (first compound 1 µM, partner dose 0.02 µM) | 48.3%
Cc1ccc(Nc2nccc(N(C)c3ccc4c(C)n(C)nc4c3)n2)cc1S(N)(=O)=O [Pazopanib] + Cn1nnc2c(C(N)=O)ncn2c1=O [temozolomide] (first compound 0.4 µM, partner dose 2 µM) | 51.3%
O=c1[nH]nc(Sc2ncc([N+](=O)[O-])s2)n1-c1ccc2c(c1)OCCO2 + CCCS(=O)(=O)Nc1ccc(F)c(C(=O)c2c[nH]c3ncc(Cl)cc23)c1F [PLX4720] (first compound 0.2 µM, partner dose 0.08 µM) | 102%
Cc1ccc(Nc2nccc(N(C)c3ccc4c(C)n(C)nc4c3)n2)cc1S(N)(=O)=O [Pazopanib] + CC(=O)c1c(C)c2cnc(Nc3ccc(N4CCNCC4)cn3)nc2n(C2CCCC2)c1=O [palbociclib] (first compound 0.4 µM, partner dose 0.04 µM) | 68.6%
Cc1cn(-c2cc(NC(=O)c3ccc(C)c(Nc4nccc(-c5cccnc5)n4)c3)cc(C(F)(F)F)c2)cn1 [nilotinib] + CN(c1ncccc1CNc1nc(Nc2ccc3c(c2)CC(=O)N3)ncc1C(F)(F)F)S(C)(=O)=O [PF562271] (first compound 0.2 µM, partner dose 0.08 µM) | 204%
CC[C@]1(O)C[C@H]2CN(CCc3c([nH]c4ccccc34)[C@@](C(=O)OC)(c3cc4c(cc3OC)N(C=O)[C@H]3[C@@](O)(C(=O)OC)[C@H](OC(C)=O)[C@]5(CC)C=CCN6CC[C@]43[C@@H]65)C2)C1 [vincristine] + COCC[n+]1c2c(n(Cc3cnccn3)c1C)C(=O)c1ccccc1C2=O [YM155] (first compound 0.0001 µM, partner dose 0.0004 µM) | 331%
Cc1cn(-c2cc(NC(=O)c3ccc(C)c(Nc4nccc(-c5cccnc5)n4)c3)cc(C(F)(F)F)c2)cn1 [nilotinib] + O=C(O)[C@@H]1[O][Sb](=[O])([O][Sb]2(=[O])[O][C@H]([C@H](O)CO)[C@H](O)[C@H](C(=O)O)[O]2)[O][C@H]([C@H](O)CO)[C@@H]1O [stibogluconate] (first compound 0.2 µM, partner dose 2 µM) | 130%
COc1cc([C@@H]2c3cc4c(cc3[C@@H](O[C@@H]3O[C@@H]5CO[C@@H](C)O[C@H]5[C@H](O)[C@H]3O)[C@H]3COC(=O)[C@H]23)OCO4)cc(OC)c1O [etoposide] + CCCCCCCCCCCCCCCCCCOP(=O)([O-])OC1CC[N+](C)(C)CC1 [Perifosine] (first compound 0.02 µM, partner dose 0.4 µM) | 89.3%
O=C(/C=C/c1cccnc1)NCCCCC1CCN(C(=O)c2ccccc2)CC1 + CS(=O)(=O)c1ccc(C(=O)Nc2ccc(Cl)c(-c3ccccn3)c2)c(Cl)c1 [vismodegib] (first compound 0.01 µM, partner dose 1 µM) | 482%
O=C(Nc1cc(C(F)(F)F)cc(C(F)(F)F)c1)c1cc(Cl)ccc1O + CCCCCCCCc1ccc(CCC(N)(CO)CO)cc1 [fingolimod] (first compound 0.016 µM, partner dose 2 µM) | 89%
CC[C@]1(O)C[C@H]2CN(CCc3c([nH]c4ccccc34)[C@@](C(=O)OC)(c3cc4c(cc3OC)N(C=O)[C@H]3[C@@](O)(C(=O)OC)[C@H](OC(C)=O)[C@]5(CC)C=CCN6CC[C@]43[C@@H]65)C2)C1 [vincristine] + CCCCCCCCCCCCCCCCCCOP(=O)([O-])OC1CC[N+](C)(C)CC1 [Perifosine] (first compound 0.0001 µM, partner dose 0.4 µM) | 147%
Cc1cc(Nc2cc(N3CCN(C)CC3)nc(Sc3ccc(NC(=O)C4CC4)cc3)n2)n[nH]1 [Tozasertib] + C#Cc1cccc(Nc2ncnc3cc(OCCOC)c(OCCOC)cc23)c1 [erlotinib] (first compound 0.006 µM, partner dose 0.8 µM) | 73.2%
Cc1cc(Nc2cc(N3CCN(C)CC3)nc(Sc3ccc(NC(=O)C4CC4)cc3)n2)n[nH]1 [Tozasertib] + CO[C@H]1C[C@@H]2CC[C@@H](C)[C@@](O)(O2)C(=O)C(=O)N2CCCC[C@H]2C(=O)O[C@H]([C@H](C)C[C@@H]2CC[C@@H](OCCO)[C@H](OC)C2)CC(=O)[C@H](C)/C=C(\C)[C@@H](O)[C@@H](OC)C(=O)[C@H](C)C[C@H](C)/C=C/C=C/C=C/1C [everolimus] (first compound 0.006 µM, partner dose 0.02 µM) | 135%
Cc1ccc(Nc2nccc(N(C)c3ccc4c(C)n(C)nc4c3)n2)cc1S(N)(=O)=O [Pazopanib] + C#Cc1cccc(Nc2ncnc3cc(OCCOC)c(OCCOC)cc23)c1 [erlotinib] (first compound 0.4 µM, partner dose 0.8 µM) | 59.8%
CCCCCCCCCCCCCCCCCCOP(=O)([O-])OC1CC[N+](C)(C)CC1 [Perifosine] + C=C(c1ccc(C(=O)O)cc1)c1cc2c(cc1C)C(C)(C)CCC2(C)C [Bexarotene] (first compound 0.4 µM, partner dose 2 µM) | 177%
O=c1[nH]nc(Sc2ncc([N+](=O)[O-])s2)n1-c1ccc2c(c1)OCCO2 + Cc1cc(Nc2cc(N3CCN(C)CC3)nc(/C=C/c3ccccc3)n2)n[nH]1 [ENMD2076] (first compound 0.2 µM, partner dose 0.04 µM) | 73.2%
CCCCCCCCCCCCCCCCCCOP(=O)([O-])OC1CC[N+](C)(C)CC1 [Perifosine] + Clc1ccc(Nc2nnc(Cc3ccncc3)c3ccccc23)cc1 [vatalanib] (first compound 0.4 µM, partner dose 2 µM) | 126%
Cc1cn(-c2cc(NC(=O)c3ccc(C)c(Nc4nccc(-c5cccnc5)n4)c3)cc(C(F)(F)F)c2)cn1 [nilotinib] + Cn1nnc2c(C(N)=O)ncn2c1=O [temozolomide] (first compound 0.2 µM, partner dose 2 µM) | 17.6%

Some of the entries above, set out differently:
SMILES	cleaved PARP positive nuclei fraction
O=c1[nH]nc(Sc2ncc([N+](=O)[O-])s2)n1-c1ccc2c(c1)OCCO2 + CCCS(=O)(=O)Nc1ccc(F)c(C(=O)c2c[nH]c3ncc(Cl)cc23)c1F [PLX4720] (first compound 0.2 µM, partner dose 0.08 µM)	102%
CC[C@]1(O)C[C@H]2CN(CCc3c([nH]c4ccccc34)[C@@](C(=O)OC)(c3cc4c(cc3OC)N(C=O)[C@H]3[C@@](O)(C(=O)OC)[C@H](OC(C)=O)[C@]5(CC)C=CCN6CC[C@]43[C@@H]65)C2)C1 [vincristine] + COCC[n+]1c2c(n(Cc3cnccn3)c1C)C(=O)c1ccccc1C2=O [YM155] (first compound 0.0001 µM, partner dose 0.0004 µM)	331%
